B1: Natural cytotoxicity triggering receptor 2 (protein, UniProt O95944 22-276, looked up)
Natural cytotoxicity …: QSKAQVLQSVAGQTLTVRCQYPPTGSLYEKKGWCKEASALVCIRLVTSSKPRTMAWTSRFTIWDDPDAGFFTVTMTDLREEDSGHYWCRIYRPSDNSVSKSVRFYLVVSPASASTQTSWTPRDLVSSQTQTQSCVPPTAGARQAPESPSTIPVPSQPQNSTLRPGPAAPIALVPVFCGLLVAKSLVLSALLVWWGDIWWKTMMELRSLDTQKATCHLQQVTDLPWTSVSSPVEREILYHTVARTKISDDDDEHTL
B2: Neutrophil gelatinase-associated lipocalin (protein, UniProt P80188 21-198, looked up)
Neutrophil …: QDSTSDLIPAPPLSKVPLQQNFQDNQFQGKWYVVGLAGNAILREDKDPQKMYATIYELKEDKSYNVTSVLFRKKKCDYWIRTFVPGCQPGEFTLGNIKSYPGLTSYLVRVVSTNYNQHAMVFFKKVSQNREYFKITLYGRTKELTSELKENFIRFSKSLGLPENHIVFPVPIDQCIDG
B3: NADPH--cytochrome P450 reductase (protein, UniProt P16435 2-677, looked up)
NADPH--cytochrome P450 …: GDSHVDTSSTVSEAVAEEVSLFSMTDMILFSLIVGLLTYWFLFRKKKEEVPEFTKIQTLTSSVRESSFVEKMKKTGRNIIVFYGSQTGTAEEFANRLSKDAHRYGMRGMSADPEEYDLADLSSLPEIDNALVVFCMATYGEGDPTDNAQDFYDWLQETDVDLSGVKFAVFGLGNKTYEHFNAMGKYVDKRLEQLGAQRIFELGLGDDDGNLEEDFITWREQFWPAVCEHFGVEATGEESSIRQYELVVHTDIDAAKVYMGEMGRLKSYENQKPPFDAKNPFLAAVTTNRKLNQGTERHLMHLELDISDSKIRYESGDHVAVYPANDSALVNQLGKILGADLDVVMSLNNLDEESNKKHPFPCPTSYRTALTYYLDITNPPRTNVLYELAQYASEPSEQELLRKMASSSGEGKELYLSWVVEARRHILAILQDCPSLRPPIDHLCELLPRLQARYYSIASSSKVHPNSVHICAVVVEYETKAGRINKGVATNWLRAKEPAGENGGRALVPMFVRKSQFRLPFKATTPVIMVGPGTGVAPFIGFIQERAWLRQQGKEVGETLLYYGCRRSDEDYLYREELAQFHRDGALTQLNVAFSREQSHKVYVQHLLKQDREHLWKLIEGGAHIYVCGDARNMARDVQNTFYDIVAELGAMEHAQAVDYIKKLMTKGRYSLDVWS
B4: Neurexophilin-1 (protein, UniProt P58417 22-271, looked up)
Neurexophilin-1: ANLTNGGKSELLKSGSSKSTLKHIWTESSKDLSISRLLSQTFRGKENDTDLDLRYDTPEPYSEQDLWDWLRNSTDLQEPRPRAKRRPIVKTGKFKKMFGWGDFHSNIKTVKLNLLITGKIVDHGNGTFSVYFRHNSTGQGNVSVSLVPPTKIVEFDLAQQTVIDAKDSKSFNCRIEYEKVDKATKNTLCNYDPSKTCYQEQTQSHVSWLCSKPFKVICIYISFYSTDYKLVQKVCPDYNYHSDTPYFPSG
B5: NAD-dependent protein deacetylase sirtuin-2 (protein, UniProt Q8IXJ6 2-389, looked up)
NAD-dependent protein …: AEPDPSHPLETQAGKVQEAQDSDSDSEGGAAGGEADMDFLRNLFSQTLSLGSQKERLLDELTLEGVARYMQSERCRRVICLVGAGISTSAGIPDFRSPSTGLYDNLEKYHLPYPEAIFEISYFKKHPEPFFALAKELYPGQFKPTICHYFMRLLKDKGLLLRCYTQNIDTLERIAGLEQEDLVEAHGTFYTSHCVSASCRHEYPLSWMKEKIFSEVTPKCEDCQSLVKPDIVFFGESLPARFFSCMQSDFLKVDLLLVMGTSLQVQPFASLISKAPLSTPRLLINKEKAGQSDPFLGMIMGLGGGMDFDSKKAYRDVAWLGECDQGCLALAELLGWKKELEDLVRREHASIDAQSGAGVPNPSTSASPKKSPPPAKDEARTTEREKPQ
B6: N-acylethanolamine-hydrolyzing acid amidase (protein, UniProt Q02083 29-359, looked up)
N-acylethanolamine-hydrolyzing …: SPPAAPRFNVSLDSVPELRWLPVLRHYDLDLVRAAMAQVIGDRVPKWVHVLIGKVVLELERFLPQPFTGEIRGMCDFMNLSLADCLLVNLAYESSVFCTSIVAQDSRGHIYHGRNLDYPFGNVLRKLTVDVQFLKNGQIAFTGTTFIGYVGLWTGQSPHKFTVSGDERDKGWWWENAIAALFRRHIPVSWLIRATLSESENFEAAVGKLAKTPLIADVYYIVGGTSPREGVVITRNRDGPADIWPLDPLNGAWFRVETNYDHWKPAPKEDDRRTSAIKALNATGQANLSLEALFQILSVVPVYNNFTIYTTVMSAGSPDKYMTRIRNPSRK
B7: Nidogen-1 (protein, UniProt P14543 29-1247, looked up)
Nidogen-1: LSRQELFPFGPGQGDLELEDGDDFVSPALELSGALRFYDRSDIDAVYVTTNGIIATSEPPAKESHPGLFPPTFGAVAPFLADLDTTDGLGKVYYREDLSPSITQRAAECVHRGFPEISFQPSSAVVVTWESVAPYQGPSRDPDQKGKRNTFQAVLASSDSSSYAIFLYPEDGLQFHTTFSKKENNQVPAVVAFSQGSVGFLWKSNGAYNIFANDRESVENLAKSSNSGQQGVWVFEIGSPATTNGVVPADVILGTEDGAEYDDEDEDYDLATTRLGLEDVGTTPFSYKALRRGGADTYSVPSVLSPRRAATERPLGPPTERTRSFQLAVETFHQQHPQVIDVDEVEETGVVFSYNTDSRQTCANNRHQCSVHAECRDYATGFCCSCVAGYTGNGRQCVAEGSPQRVNGKVKGRIFVGSSQVPIVFENTDLHSYVVMNHGRSYTAISTIPETVGYSLLPLAPVGGIIGWMFAVEQDGFKNGFSITGGEFTRQAEVTFVGHPGNLVIKQRFSGIDEHGHLTIDTELEGRVPQIPFGSSVHIEPYTELYHYSTSVITSSSTREYTVTEPERDGASPSRIYTYQWRQTITFQECVHDDSRPALPSTQQLSVDSVFVLYNQEEKILRYALSNSIGPVREGSPDALQNPCYIGTHGCDTNAACRPGPRTQFTCECSIGFRGDGRTCYDIDECSEQPSVCGSHTICNNHPGTFRCECVEGYQFSDEGTCVAVVDQRPINYCETGLHNCDIPQRAQCIYTGGSSYTCSCLPGFSGDGQACQDVDECQPSRCHPDAFCYNTPGSFTCQCKPGYQGDGFRCVPGEVEKTRCQHEREHILGAAGATDPQRPIPPGLFVPECDAHGHYAPTQCHGSTGYCWCVDRDGREVEGTRTRPGMTPPCLSTVAPPIHQGPAVPTAVIPLPPGTHLLFAQTGKIERLPLEGNTMRKTEAKAFLHVPAKVIIGLAFDCVDKMVYWTDITEPSIGRASLHGGEPTTIIRQDLGSPEGIAVDHLGRNIFWTDSNLDRIEVAKLDGTQRRVLFETDLVNPRGIVTDSVRGNLYWTDWNRDNPKIETSYMDGTNRRILVQDDLGLPNGLTFDAFSSQLCWVDAGTNRAECLNPSQPSRRKALEGLQYPFAVTSYGKNLYFTDWKMNSVVALDLAISKETDAFQPHKQTRLYGITTALSQCPQGHNYCSVNNGGCTHLCLATPGSRTCRCPDNTLGVDCIEQK

Test system: proteins in oral lavage
Assay: Abundance of proteins in human oral lavage (SomaLogic), TABLE 1
Type: in vivo
Settings: for Means (Original Scale) High bleeder BL / Means (Original Scale) High bleeder W4 / Means (Original Scale) Low bleeder BL: abundance in oral lavage; for Means (Original Scale) High bleeder BL: high bleeders (gingivitis); for Means (Original Scale) High bleeder BL / Means (Original Scale) Low bleeder BL: baseline; for Means (Original Scale) High bleeder W4 / Fold Change High bleeder W4 vs High bleeder BL: high bleeders; for Means (Original Scale) High bleeder W4: week 4 of investigative products; for Means (Original Scale) Low bleeder BL: low bleeders (healthy); for Fold Change High bleeder BL vs Low bleeder BL / Fold Change High bleeder W4 vs High bleeder BL: oral lavage; for Fold Change High bleeder BL vs Low bleeder BL: high bleeders vs low bleeders at baseline; for Fold Change High bleeder W4 vs High bleeder BL: week 4 of investigative products vs baseline

| Molecule | Means (Original Scale) High bleeder BL | Means (Original Scale) High bleeder W4 | Means (Original Scale) Low bleeder BL | Fold Change High bleeder BL vs Low bleeder BL | Fold Change High bleeder W4 vs High bleeder BL |
| --- | --- | --- | --- | --- | --- |
| B1 | 77 | 55 | 45 | 1.66 | 0.76 |
| B2 | 290631 | 182049 | 209403 | 1.71 | 0.55 |
| B3 | 1621 | 1355 | 221 | 10.71 | 0.54 |
| B4 | 377 | 224 | 135 | 2.43 | 0.66 |
| B5 | 7030 | 4631 | 3074 | 2.21 | 0.67 |
| B6 | 1737 | 606 | 121 | 6.62 | 0.52 |
| B7 | 526 | 329 | 157 | 3.12 | 0.65 |

From patent US20180320217A1, “METHODS FOR SAMPLING AND MEASURING ORAL LAVAGE PROTEINS” (The Procter & Gamble Company, priority 2017, published 2018)
